Measurements taken from patent publication US20220160826A1.
These are yes or no findings as the source states them, for the method shown. Binding seen in cells or lysates may run through a third protein. Some binding calls cover weakened binding; strength is not graded here. Where a sequence is shown, tags or fusion partners need not be part of it.

Target: T1, Myc-A20 (Myc epitope-tagged A20, TNFAIP3) (UniProt P21580)
T1 sequence (looked up): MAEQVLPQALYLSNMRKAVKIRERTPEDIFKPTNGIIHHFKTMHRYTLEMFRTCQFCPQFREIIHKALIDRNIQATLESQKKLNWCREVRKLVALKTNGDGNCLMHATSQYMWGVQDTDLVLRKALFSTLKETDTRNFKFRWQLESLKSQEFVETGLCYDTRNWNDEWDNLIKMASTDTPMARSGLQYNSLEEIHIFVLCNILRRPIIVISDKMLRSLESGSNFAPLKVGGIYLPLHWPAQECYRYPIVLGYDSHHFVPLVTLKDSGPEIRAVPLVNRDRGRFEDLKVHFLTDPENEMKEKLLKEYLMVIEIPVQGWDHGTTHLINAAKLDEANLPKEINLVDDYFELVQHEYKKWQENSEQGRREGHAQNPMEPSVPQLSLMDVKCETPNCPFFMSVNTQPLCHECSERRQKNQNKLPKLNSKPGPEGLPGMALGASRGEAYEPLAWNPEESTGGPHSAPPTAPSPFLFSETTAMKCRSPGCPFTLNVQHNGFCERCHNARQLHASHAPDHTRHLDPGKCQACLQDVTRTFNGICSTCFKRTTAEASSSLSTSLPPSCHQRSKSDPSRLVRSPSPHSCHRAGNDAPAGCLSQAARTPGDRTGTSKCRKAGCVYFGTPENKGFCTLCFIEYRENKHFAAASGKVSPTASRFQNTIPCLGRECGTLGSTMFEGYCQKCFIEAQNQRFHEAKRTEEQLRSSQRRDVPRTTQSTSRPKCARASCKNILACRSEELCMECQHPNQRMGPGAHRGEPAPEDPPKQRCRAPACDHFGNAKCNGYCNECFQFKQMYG
Experiment: co-immunoprecipitation with anti-HA antibody from transfected 293-T cells, western blot

binding | Substance
binds | HA-YAP9 (HA epitope-tagged YAP1 isoform 9) (from UniProt P46937 1-508)
binds | HA-YAP2 (HA epitope-tagged YAP1 isoform 2) (from UniProt P46937 1-488)
